Data published in US20240226228A1, “ANTIMICROBIAL PEPTOID HAVING IMPROVED SELECTIVITY AND ANTIMICROBIAL COMPOSITION COMPRISING SAME” (priority 2021, published 2024).
Where a SMILES comes first, the peptide text is derived from it. [ ]: non-standard residue; d: D form. Gly(N(CH2)2(3-indolyl)) = O=C(O)CNCCc1c[nH]c2ccccc12; Nspe = C[C@H](NCC(=O)O)c1ccccc1; Nphe = O=C(O)CNCc1ccccc1; Nlys = NCCCCNCC(=O)O

test system: red blood cells / E. coli; assay: Analysis of selectivity of peptoid (HD10 divided by MIC against E. coli); settings: HD10 divided by MIC against E. coli

Q: For `C[C@@H](c1ccccc1)N(CC(N)=O)C(=O)CN(C(=O)CN(CCCCN)C(=O)CN(C(=O)CN(C(=O)CN(CCCCN)C(=O)CN(C(=O)CN(C(=O)CN(CCCCN)C(=O)CN(C(=O)CN(C(=O)CNCCCCN)[C@@H](C)c1ccccc1)[C@@H](C)c1ccccc1)[C@@H](C)c1ccccc1)[C@@H](C)c1ccccc1)[C@@H](C)c1ccccc1)[C@@H](C)c1ccccc1)[C@@H](C)c1ccccc1` [Peptoid 1, H-NLys-Nspe-Nspe-NLys-Nspe-Nspe-NLys-Nspe-Nspe-NLys-Nspe-Nspe-NH2, reference compound] (H-[Nlys][Nspe][Nspe][Nlys][Nspe][Nspe][Nlys][Nspe][Nspe][Nlys][Nspe][Nspe]-NH2), which Selectivity is on record?
A: The Selectivity was 7.4.

same assay, conditions: Table 18; TFA salt vs counter ion-substituted peptoids

Q: With `C[C@@H](c1ccccc1)N(CC(N)=O)C(=O)CN(CCCCN)C(=O)CN(CCCCN)C(=O)CN(C(=O)CN(C(=O)CN(CCCCN)C(=O)CN(C(=O)CN(C(=O)CN(CCCCN)C(=O)CN(CCc1c[nH]c2ccccc12)C(=O)CN(CCc1c[nH]c2ccccc12)C(=O)CNCCCCN)[C@@H](C)c1ccccc1)[C@@H](C)c1ccccc1)[C@@H](C)c1ccccc1)[C@@H](C)c1ccccc1` [Peptoid 32-1] as the compound, how does the Selectivity read?
A: The Selectivity was >15.9.

Q: Which Selectivity does the source give for `C[C@@H](c1ccccc1)N(CC(N)=O)C(=O)CN(C(=O)CN(CCCCN)C(=O)CN(C(=O)CN(CCc1c[nH]c2ccccc12)C(=O)CN(CCCCN)C(=O)CN(CCc1c[nH]c2ccccc12)C(=O)CN(C(=O)CN(CCCCN)C(=O)CN(C(=O)CN(C(=O)CNCCCCN)[C@@H](C)c1ccccc1)[C@@H](C)c1ccccc1)[C@@H](C)c1ccccc1)[C@@H](C)c1ccccc1)[C@@H](C)c1ccccc1` [Peptoid 15-1] here?
A: The Selectivity was 8.

Q: `C[C@@H](c1ccccc1)N(CC(N)=O)C(=O)CN(C(=O)CN(CCCCN)C(=O)CN(C(=O)CN(C(=O)CN(CCCCN)C(=O)CN(C(=O)CN(C(=O)CN(CCCCN)C(=O)CN(C(=O)CN(C(=O)CNCCCCN)[C@@H](C)c1ccccc1)[C@@H](C)c1ccccc1)[C@@H](C)c1ccccc1)[C@@H](C)c1ccccc1)[C@@H](C)c1ccccc1)[C@@H](C)c1ccccc1)[C@@H](C)c1ccccc1` [Peptoid 1-1, reference compound] (H-[Nlys][Nspe][Nspe][Nlys][Nspe][Nspe][Nlys][Nspe][Nspe][Nlys][Nspe][Nspe]-NH2) was tested. Which Selectivity did it give?
A: The Selectivity was 4.4.

Q: With `C[C@@H](c1ccccc1)N(CC(=O)N(CCCCN)CC(=O)N(CCc1c[nH]c2ccccc12)CC(=O)N(CCc1c[nH]c2ccccc12)CC(N)=O)C(=O)CN(CCCCN)C(=O)CN(CCCCN)C(=O)CN(C(=O)CN(C(=O)CN(CCCCN)C(=O)CN(C(=O)CN(C(=O)CNCCCCN)[C@@H](C)c1ccccc1)[C@@H](C)c1ccccc1)[C@@H](C)c1ccccc1)[C@@H](C)c1ccccc1` [Peptoid 29, H-NLys-Nspe-Nspe-NLys-Nspe-Nspe-NLys-NLys-Nspe-NLys-NhTrp-NhTrp-NH2] (H-[Nlys][Nspe][Nspe][Nlys][Nspe][Nspe][Nlys][Nlys][Nspe][Nlys][Gly(N(CH2)2(3-indolyl))][Gly(N(CH2)2(3-indolyl))]-NH2) as the compound, how does the Selectivity read?
A: Its Selectivity is 14.1.

Q: `C[C@@H](c1ccccc1)N(CC(=O)N(CCCCN)CC(=O)N(CCc1c[nH]c2ccccc12)CC(=O)N(CCc1c[nH]c2ccccc12)CC(N)=O)C(=O)CN(CCCCN)C(=O)CN(CCCCN)C(=O)CN(C(=O)CN(C(=O)CN(CCCCN)C(=O)CN(C(=O)CN(C(=O)CNCCCCN)[C@@H](C)c1ccccc1)[C@@H](C)c1ccccc1)[C@@H](C)c1ccccc1)[C@@H](C)c1ccccc1` [Peptoid 29-2] (H-[Nlys][Nspe][Nspe][Nlys][Nspe][Nspe][Nlys][Nlys][Nspe][Nlys][Gly(N(CH2)2(3-indolyl))][Gly(N(CH2)2(3-indolyl))]-NH2) was tested. Which Selectivity did it give?
A: The Selectivity was >15.9.

Q: How did the Selectivity turn out when `C[C@@H](c1ccccc1)N(CC(=O)N(CCCCN)CC(=O)N(CCc1c[nH]c2ccccc12)CC(=O)N(CCc1c[nH]c2ccccc12)CC(N)=O)C(=O)CN(CCCCN)C(=O)CN(CCCCN)C(=O)CN(C(=O)CN(C(=O)CN(CCCCN)C(=O)CN(C(=O)CN(C(=O)CNCCCCN)[C@@H](C)c1ccccc1)[C@@H](C)c1ccccc1)[C@@H](C)c1ccccc1)[C@@H](C)c1ccccc1` [Peptoid 29-1] (H-[Nlys][Nspe][Nspe][Nlys][Nspe][Nspe][Nlys][Nlys][Nspe][Nlys][Gly(N(CH2)2(3-indolyl))][Gly(N(CH2)2(3-indolyl))]-NH2) was run?
A: The Selectivity was >8.0.

Q: `C[C@@H](c1ccccc1)N(CC(=O)N(CCCCN)CC(=O)N(CC(=O)N(CC(=O)N(CCCCN)CC(=O)N(CC(=O)N(CC(=O)N(CCCCN)CC(N)=O)[C@@H](C)c1ccccc1)[C@@H](C)c1ccccc1)[C@@H](C)c1ccccc1)[C@@H](C)c1ccccc1)C(=O)CN(C(=O)CN(CCCCN)C(=O)CN(CCc1c[nH]c2ccccc12)C(=O)CNCCc1c[nH]c2ccccc12)[C@@H](C)c1ccccc1` [Peptoid 37-2] (H-[Gly(N(CH2)2(3-indolyl))][Gly(N(CH2)2(3-indolyl))][Nlys][Nspe][Nspe][Nlys][Nspe][Nspe][Nlys][Nspe][Nspe][Nlys]-NH2) was tested. Which Selectivity did it give?
A: Its Selectivity is 2.

Q: Which Selectivity does the source give for `C[C@@H](c1ccccc1)N(CC(N)=O)C(=O)CN(C(=O)CN(CCCCN)C(=O)CN(C(=O)CN(C(=O)CN(CCCCN)C(=O)CN(C(=O)CN(C(=O)CN(CCCCN)C(=O)CN(C(=O)CN(C(=O)CNCCCCN)[C@@H](C)c1ccccc1)[C@@H](C)c1ccccc1)[C@@H](C)c1ccccc1)[C@@H](C)c1ccccc1)[C@@H](C)c1ccccc1)[C@@H](C)c1ccccc1)[C@@H](C)c1ccccc1` [Peptoid 1-2, reference compound] (H-[Nlys][Nspe][Nspe][Nlys][Nspe][Nspe][Nlys][Nspe][Nspe][Nlys][Nspe][Nspe]-NH2) here?
A: Its Selectivity is 2.

Q: `C[C@@H](c1ccccc1)N(CC(N)=O)C(=O)CN(C(=O)CN(CCCCN)C(=O)CN(C(=O)CN(C(=O)CN(CCCCN)C(=O)CN(C(=O)CN(C(=O)CN(CCCCN)C(=O)CN(C(=O)CN(C(=O)CNCCCCN)[C@@H](C)c1ccccc1)[C@@H](C)c1ccccc1)[C@@H](C)c1ccccc1)[C@@H](C)c1ccccc1)[C@@H](C)c1ccccc1)[C@@H](C)c1ccccc1)[C@@H](C)c1ccccc1` [Peptoid 1, H-NLys-Nspe-Nspe-NLys-Nspe-Nspe-NLys-Nspe-Nspe-NLys-Nspe-Nspe-NH2, reference compound] (H-[Nlys][Nspe][Nspe][Nlys][Nspe][Nspe][Nlys][Nspe][Nspe][Nlys][Nspe][Nspe]-NH2) was tested. Which Selectivity did it give?
A: The Selectivity was 2.5.

same assay, conditions: Tables 11-13

Q: With `C[C@@H](c1ccccc1)N(CC(=O)N(CCCCN)CC(=O)N(CCc1c[nH]c2ccccc12)CC(=O)N(CCc1c[nH]c2ccccc12)CC(N)=O)C(=O)CN(CCCCN)C(=O)CN(CCCCN)C(=O)CN(C(=O)CN(C(=O)CN(CCCCN)C(=O)CN(Cc1ccccc1)C(=O)CN(Cc1ccccc1)C(=O)CNCCCCN)[C@@H](C)c1ccccc1)[C@@H](C)c1ccccc1` [Peptoid 41] (H-[Nlys][Nphe][Nphe][Nlys][Nspe][Nspe][Nlys][Nlys][Nspe][Nlys][Gly(N(CH2)2(3-indolyl))][Gly(N(CH2)2(3-indolyl))]-NH2) as the compound, how does the “Selectivity [HD10/MIC (E. coli)]” value read?
A: The value was >4.0.

Q: Which “Selectivity [HD10/MIC (E. coli)]” value does the source give for `C[C@@H](c1ccccc1)N(CC(N)=O)C(=O)CN(CCCCN)C(=O)CN(CCCCN)C(=O)CN(C(=O)CN(C(=O)CN(CCCCN)C(=O)CN(C(=O)CN(C(=O)CN(CCCCN)C(=O)CN(Cc1ccccc1)C(=O)CN(Cc1ccccc1)C(=O)CNCCCCN)[C@@H](C)c1ccccc1)[C@@H](C)c1ccccc1)[C@@H](C)c1ccccc1)[C@@H](C)c1ccccc1` [Peptoid 47] here?
A: Its value is >4.0.

Q: `C[C@@H](c1ccccc1)N(CC(=O)N(CCCCN)CC(=O)N(CCc1c[nH]c2ccccc12)CC(=O)N(CCc1c[nH]c2ccccc12)CC(N)=O)C(=O)CN(CCCCN)C(=O)CN(CCCCN)C(=O)CN(C(=O)CN(C(=O)CN(CCCCN)C(=O)CN(C(=O)CN(C(=O)CNCCCCN)[C@@H](C)c1ccccc1)[C@@H](C)c1ccccc1)[C@@H](C)c1ccccc1)[C@@H](C)c1ccccc1` [Peptoid 29, H-NLys-Nspe-Nspe-NLys-Nspe-Nspe-NLys-NLys-Nspe-NLys-NhTrp-NhTrp-NH2] (H-[Nlys][Nspe][Nspe][Nlys][Nspe][Nspe][Nlys][Nlys][Nspe][Nlys][Gly(N(CH2)2(3-indolyl))][Gly(N(CH2)2(3-indolyl))]-NH2) was tested. Which “Selectivity [HD10/MIC (E. coli)]” value did it give?
A: Its value is >15.9.

Q: For `C[C@@H](c1ccccc1)N(CC(=O)N(CCCCN)CC(=O)N(CCCCN)CC(=O)N(CCc1c[nH]c2ccccc12)CC(=O)N(CCc1c[nH]c2ccccc12)CC(N)=O)C(=O)CN(CCCCN)C(=O)CN(C(=O)CN(C(=O)CN(CCCCN)C(=O)CN(C(=O)CN(C(=O)CNCCCCN)[C@@H](C)c1ccccc1)[C@@H](C)c1ccccc1)[C@@H](C)c1ccccc1)[C@@H](C)c1ccccc1` [Peptoid 28] (H-[Nlys][Nspe][Nspe][Nlys][Nspe][Nspe][Nlys][Nspe][Nlys][Nlys][Gly(N(CH2)2(3-indolyl))][Gly(N(CH2)2(3-indolyl))]-NH2), which “Selectivity [HD10/MIC (E. coli)]” value is on record?
A: Its value is >8.0.

Q: Which “Selectivity [HD10/MIC (E. coli)]” value does the source give for `C[C@@H](c1ccccc1)N(CC(=O)N(CCCCN)CC(=O)N(CC(=O)N(CC(=O)N(CCCCN)CC(=O)N(CCc1c[nH]c2ccccc12)CC(=O)N(CCc1c[nH]c2ccccc12)CC(N)=O)[C@@H](C)c1ccccc1)[C@@H](C)c1ccccc1)C(=O)CN(CCCCN)C(=O)CN(CCCCN)C(=O)CN(C(=O)CN(C(=O)CNCCCCN)[C@@H](C)c1ccccc1)[C@@H](C)c1ccccc1` [Peptoid 30] (H-[Nlys][Nspe][Nspe][Nlys][Nlys][Nspe][Nlys][Nspe][Nspe][Nlys][Gly(N(CH2)2(3-indolyl))][Gly(N(CH2)2(3-indolyl))]-NH2) here?
A: Its value is >8.0.

Q: For `C[C@@H](c1ccccc1)N(CC(=O)N(CCCCN)CC(=O)N(CCc1c[nH]c2ccccc12)CC(=O)N(CCc1c[nH]c2ccccc12)CC(N)=O)C(=O)CN(CCCCN)C(=O)CN(CCCCN)C(=O)CN(Cc1ccccc1)C(=O)CN(Cc1ccccc1)C(=O)CN(CCCCN)C(=O)CN(C(=O)CN(C(=O)CNCCCCN)[C@@H](C)c1ccccc1)[C@@H](C)c1ccccc1` [Peptoid 40] (H-[Nlys][Nspe][Nspe][Nlys][Nphe][Nphe][Nlys][Nlys][Nspe][Nlys][Gly(N(CH2)2(3-indolyl))][Gly(N(CH2)2(3-indolyl))]-NH2), which “Selectivity [HD10/MIC (E. coli)]” value is on record?
A: The value was >8.0.

Q: `C[C@@H](c1ccccc1)N(CC(N)=O)C(=O)CN(C(=O)CN(CCCCN)C(=O)CN(C(=O)CN(C(=O)CN(CCCCN)C(=O)CN(C(=O)CN(C(=O)CN(CCCCN)C(=O)CN(C(=O)CN(C(=O)CNCCCCN)[C@@H](C)c1ccccc1)[C@@H](C)c1ccccc1)[C@@H](C)c1ccccc1)[C@@H](C)c1ccccc1)[C@@H](C)c1ccccc1)[C@@H](C)c1ccccc1)[C@@H](C)c1ccccc1` [Peptoid 1, H-NLys-Nspe-Nspe-NLys-Nspe-Nspe-NLys-Nspe-Nspe-NLys-Nspe-Nspe-NH2, reference compound] (H-[Nlys][Nspe][Nspe][Nlys][Nspe][Nspe][Nlys][Nspe][Nspe][Nlys][Nspe][Nspe]-NH2) was tested. Which “Selectivity [HD10/MIC (E. coli)]” value did it give?
A: Its value is 1.3.

Q: For `C[C@@H](c1ccccc1)N(CC(N)=O)C(=O)CN(C(=O)CN(CCCCN)C(=O)CN(C(=O)CN(CCCCN)C(=O)CN(CCCCN)C(=O)CN(C(=O)CN(C(=O)CN(CCCCN)C(=O)CN(CCc1c[nH]c2ccccc12)C(=O)CN(CCc1c[nH]c2ccccc12)C(=O)CNCCCCN)[C@@H](C)c1ccccc1)[C@@H](C)c1ccccc1)[C@@H](C)c1ccccc1)[C@@H](C)c1ccccc1` [Peptoid 33], which “Selectivity [HD10/MIC (E. coli)]” value is on record?
A: Its value is >8.0.

Q: With `C[C@@H](c1ccccc1)N(CC(=O)N(CCCCN)CC(=O)N(CCCCN)CC(=O)N(CC(=O)N(CC(=O)N(CCCCN)CC(=O)N(CC(=O)N(CC(=O)N(CCCCN)CC(N)=O)[C@@H](C)c1ccccc1)[C@@H](C)c1ccccc1)[C@@H](C)c1ccccc1)[C@@H](C)c1ccccc1)C(=O)CN(CCCCN)C(=O)CN(CCc1c[nH]c2ccccc12)C(=O)CNCCc1c[nH]c2ccccc12` [Peptoid 38] (H-[Gly(N(CH2)2(3-indolyl))][Gly(N(CH2)2(3-indolyl))][Nlys][Nspe][Nlys][Nlys][Nspe][Nspe][Nlys][Nspe][Nspe][Nlys]-NH2) as the compound, how does the “Selectivity [HD10/MIC (E. coli)]” value read?
A: The value was >8.0.
